Results published in PubChem BioAssay AID2417 (National Center for Advancing Translational Sciences (NCATS), 2010).
The whole screen tested about 140,000 compounds, of which about 4,300 (3.1%) were called active. Inconclusive means that the source gave no clear call. Such entries were picked first, then a sample of the others.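 How the source made its calls: active means readout at or below -70, meaning at least 70% loss of cells showing the perinucleolar compartment, a nuclear body marking cancer cells; inconclusive means readout between -30 and a set limit; inactive means the rest.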

Assay: High Content Assay for Compounds that inhibit the Assembly of the Perinucleolar Compartment;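 further: plate controls were DMSO wells for no effect and camptothecin positive control wells for full effect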
Settings: PC3M PTB-GFP, PNC prevalence imaging, 16 h; at 10 µM; hits give low values
Method in brief: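 Read-out is percentage of cells bearing a perinucleolar compartment, from automated 20x imaging of fixed, Hoechst-stained PC3M PTB-GFP cells. Cells were seeded 4 h, then exposed 16 h to compound (23 nl of library stock) in duplicate plates.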
In the case of `CCc1cc2ccc(C)cc2nc1SCC(=O)N1CCN(C(=O)c2ccco2)CC1`, the activity change (PNC), negative = inhibition was inactive: 20.1%. In the case of `O=C(Nc1cccc(NC(=O)C2CC3CCCC(C2)C3=O)n1)C1CC2CCCC(C1)C2=O` (centres undefined), the activity change (PNC), negative = inhibition was inconclusive: -50.1%. With `CCN(CC)S(=O)(=O)c1ccc(-c2nnc(SCc3nnc(-c4ccccc4)o3)o2)cc1` the activity change (PNC), negative = inhibition was inconclusive: -40.8%. In the case of `Cc1cc(OC(=O)c2ccco2)c2c(C)cc(=O)oc2c1`, the activity change (PNC), negative = inhibition was inconclusive: -49.9%. With `COC(=O)[C@H](Cc1ccccc1)NC(=O)NCCC1=CCCCC1` the activity change (PNC), negative = inhibition was inactive: -9.83%. For `O=C(c1ccco1)N1CCN(C(c2ccccc2)c2nnnn2Cc2cccs2)CC1` (centres undefined), the activity change (PNC), negative = inhibition was inactive: -22.4%. In the case of `O=C(NC(=S)N(Cc1ccccc1)c1ccccn1)C1CCCCC1`, the activity change (PNC), negative = inhibition was active: -103%. In the case of `OCCn1c(SC2CCCCC2)nc2ccccc21`, the activity change (PNC), negative = inhibition was inconclusive: -58.6%. For `O=C(/C=C/c1ccc2c(c1)OCCCO2)c1ccc2ccccc2c1O`, the activity change (PNC), negative = inhibition was inactive: -16.1%. In the case of `COc1cc2c(cc1OC)CN(Cc1cc(=O)oc3c(C)c(C)ccc13)CC2`, the activity change (PNC), negative = inhibition was inconclusive: -73.8%. With `O=P(O)(O)CCP(=O)(c1ccccc1)c1ccccc1` the activity change (PNC), negative = inhibition was inconclusive: -36.1%. In the case of `COc1ccccc1N1CCN(C(=O)CSc2ncccc2-c2nc3ccccc3[nH]2)CC1`, the activity change (PNC), negative = inhibition was inactive: 11.7%. In the case of `O=S(=O)(NCCc1ccncc1)c1cc(Br)ccc1F`, the activity change (PNC), negative = inhibition was inactive: -18.9%. In the case of `O=C(Cn1nc(Cc2cccnc2)c2ccccc2c1=O)NCC1CCCO1` (centres undefined), the activity change (PNC), negative = inhibition was inconclusive: -64.6%. In the case of `COc1ccc(C2C(C(=O)OCC(=O)N3CCCCC3)CCC(=O)N2c2ccc(OC)cc2)cc1` (centres undefined), the activity change (PNC), negative = inhibition was inactive: -4.88%. For `CC1(C)CC(=O)c2cc(NC(=O)c3ccccc3)c(=O)oc2C1`, the activity change (PNC), negative = inhibition was inactive: 0.405%. In the case of `Cc1ccc(N2CC(C(=O)NCc3ccccn3)CC2=O)cc1` (centres undefined), the activity change (PNC), negative = inhibition was inconclusive: -34.4%. For `CCn1c(SCC(=O)Nc2ccccc2OC)nnc1-c1cnccn1`, the activity change (PNC), negative = inhibition was inactive: -16.2%. For `CCOC(=O)C1CCCN(Cc2cc(OC)c(O)c(OC)c2)C1` (centres undefined), the activity change (PNC), negative = inhibition was inconclusive: -33.5%. With `COc1ccc(-c2nnn(CC(=O)Nc3sc4c(c3C#N)CCCC4)n2)cc1` the activity change (PNC), negative = inhibition was inconclusive: -30.4%. For `CN(C)CC(=O)N1c2ccccc2CCc2ccc(NC(=O)c3ccc(N)cc3)cc21`, the activity change (PNC), negative = inhibition was active: -85.3%. With `CCOC(=O)Cc1csc(Nc2ccc(Cl)cc2)n1` the activity change (PNC), negative = inhibition was inactive: 2.2%. With `CC(=O)Nc1ccc(S(=O)(=O)NC2(C(F)(F)F)NC(=O)N(C3CCCC3)C2=O)cc1` (centres undefined) the activity change (PNC), negative = inhibition was inconclusive: -63.3%. For `C=CCc1c(C)nc(-c2ccccc2)nc1N/N=C(\C)c1ccc(N)cc1`, the activity change (PNC), negative = inhibition was inconclusive: -40.2%. With `CC(=O)Nc1ccccc1C(=O)C(=O)Nc1cccc(C(=O)NC2CC2)c1` the activity change (PNC), negative = inhibition was inconclusive: -78.3%. In the case of `Cc1ccc(Cl)c(NC(=O)COC(=O)CNS(=O)(=O)/C=C/c2ccccc2)c1Cl`, the activity change (PNC), negative = inhibition was inconclusive: -43.7%. With `COc1cc(/C=C2\SC(=Nc3ccccc3)N(Cc3ccco3)C2=O)ccc1OC(C)C(=O)O` (centres undefined) the activity change (PNC), negative = inhibition was inconclusive: -38%. In the case of `CCC(=O)N1CCN(c2ccccc2NC(=O)COc2ccccc2Cl)CC1`, the activity change (PNC), negative = inhibition was inconclusive: -69%. For `CCc1noc(C)c1C(=O)Nc1nc(-c2ccc(Cl)cc2Cl)cs1`, the activity change (PNC), negative = inhibition was inactive: -16.2%. With `COc1cccc(/C=N/NC(=O)c2cccc([N+](=O)[O-])c2)c1OS(=O)(=O)c1ccccc1` the activity change (PNC), negative = inhibition was inconclusive: -42.4%. In the case of `C=CCn1c(SCC(=O)Nc2cc(C)on2)nc2sc(CC)cc2c1=O`, the activity change (PNC), negative = inhibition was inactive: -4.29%. For `Cc1nn(Cc2ccc(Cl)cc2Cl)c(Cl)c1/C=C/C(=O)OCC(=O)NCC(F)(F)F`, the activity change (PNC), negative = inhibition was inconclusive: -79.8%. With `O=C(c1ccccn1)c1conc1C(=O)c1ccc(Br)cc1` the activity change (PNC), negative = inhibition was inactive: -22.5%. In the case of `CC(C)C(=O)Nc1nnc(SCC(=O)Nc2ccc3c(c2)OCO3)s1`, the activity change (PNC), negative = inhibition was inconclusive: -30%. With `CC(C)(C)c1ccc(OCC(=O)NCc2ccco2)cc1` the activity change (PNC), negative = inhibition was inactive: 6.07%. With `Cc1cc(N2CCN(C(=O)c3ccco3)CC2)n2nc(-c3cccc(F)c3)cc2n1` the activity change (PNC), negative = inhibition was inconclusive: -45.5%. For `COc1ccc(C(=O)N/N=C2/SCC(=O)N2Cc2ccc3c(c2)OCO3)cc1OC`, the activity change (PNC), negative = inhibition was inactive: 42.8%. In the case of `CCOC(=O)c1ccc(COC(=O)c2cc3ccccc3oc2=O)o1`, the activity change (PNC), negative = inhibition was inconclusive: -63.1%. With `CCN(CC)S(=O)(=O)c1ccc(Cl)c(NC(=O)c2ccc(C#N)cc2)c1` the activity change (PNC), negative = inhibition was active: -97%. For `Nc1nc(SCc2ccccc2)ns1`, the activity change (PNC), negative = inhibition was inconclusive: -30.7%. For `O=C(CCNC(=O)c1ccc(Cl)cc1)Nc1c(F)c(F)cc(F)c1F`, the activity change (PNC), negative = inhibition was inactive: -28.1%. In the case of `Cc1nc2ccccc2c(=O)n1NC(=O)c1ccco1`, the activity change (PNC), negative = inhibition was inactive: 299%. For `CCN(CC)C(=O)C1CCCN(c2ccc([N+](=O)[O-])cc2/C=N/NC(=O)c2ccc([N+](=O)[O-])cc2)C1` (centres undefined), the activity change (PNC), negative = inhibition was inactive: 38.4%. For `O=C1[C@@H]2[C@H](C(=O)N1O)[C@H]1C=C[C@@H]2C1`, the activity change (PNC), negative = inhibition was inactive: 32.7%. For `CN(C)S(=O)(=O)Nc1ccc(NS(=O)(=O)N(C)C)c(S(=O)(=O)c2ccccc2)c1`, the activity change (PNC), negative = inhibition was inactive: 11.4%. In the case of `COC(=O)c1ccccc1NC(=O)Cn1nnc(-c2ccc(OC)cc2)n1`, the activity change (PNC), negative = inhibition was inconclusive: -31.2%. With `COc1ccc(-n2c(SCc3ccc([N+](=O)[O-])cc3)nnc2-c2ccc(C)cc2)cc1` the activity change (PNC), negative = inhibition was inconclusive: -47.8%. With `O=S(=O)(NCC1CCCO1)c1ccc2oc3ccc(S(=O)(=O)NCC4CCCO4)cc3c2c1` (centres undefined) the activity change (PNC), negative = inhibition was inconclusive: -65.8%. With `Cc1ccc2nsnc2c1S(=O)(=O)Nc1cccc2nsnc12` the activity change (PNC), negative = inhibition was inconclusive: -45.1%. In the case of `Cc1cccc(NCc2ccccc2O)n1`, the activity change (PNC), negative = inhibition was inconclusive: -49.5%. For `COC(=O)c1ccc(CSc2nnnn2Cc2ccccc2)cc1`, the activity change (PNC), negative = inhibition was inactive: 4.62%. For `CCOc1cc(S(=O)(=O)NC2CCCC2)ccc1Cl`, the activity change (PNC), negative = inhibition was inconclusive: -67.8%. In the case of `Cc1nc2sc(C(c3ccccc3)N3CCOCC3)c(O)n2n1` (centres undefined), the activity change (PNC), negative = inhibition was inconclusive: -55.7%. In the case of `CCCC(C)C(=O)OCC(=O)Nc1c(Br)cc(C)cc1Br` (centres undefined), the activity change (PNC), negative = inhibition was inconclusive: -40.3%. In the case of `CCOC(=O)c1ccc(N2CN=C3SCC(=O)N3C2)cc1`, the activity change (PNC), negative = inhibition was inconclusive: -41.1%. For `Cc1cc(C(=O)N/N=C2\CCCc3ccccc32)c(C)o1`, the activity change (PNC), negative = inhibition was active: -113%. With `COCC(=O)Nc1ccc([N+](=O)[O-])cc1OC` the activity change (PNC), negative = inhibition was inconclusive: -35.9%. For `CC(C)OC(=O)Cn1nnc2c(cnn2-c2ccccc2)c1=O`, the activity change (PNC), negative = inhibition was active: -100%. For `CC1(CC(=O)N/N=C/c2ccc(-c3cccc(C(F)(F)F)c3)o2)OCCO1`, the activity change (PNC), negative = inhibition was inactive: -24.5%. In the case of `O=C(COC(=O)CCNS(=O)(=O)c1ccc(Cl)cc1)NCc1ccco1`, the activity change (PNC), negative = inhibition was inconclusive: -59.3%. With `Cc1cc(C(=O)CSc2nnc(Nc3ccccc3)s2)c(C)n1CC1CCCO1` (centres undefined) the activity change (PNC), negative = inhibition was inconclusive: -36.7%. For `CCC(C)c1ccc(NC(=S)NC2CCN(Cc3ccccc3)CC2)cc1` (centres undefined), the activity change (PNC), negative = inhibition was inconclusive: -58.7%. For `COc1cccc(Oc2ccc(N)cc2)c1`, the activity change (PNC), negative = inhibition was inconclusive: -79.1%. With `COC(=O)c1cn(-c2ccc(Cl)cc2)c(=O)c2ccccc12` the activity change (PNC), negative = inhibition was inconclusive: -45.2%. In the case of `CCCCNC(=S)N/N=C/c1ccc(OCC(=O)Nc2c(C)cc(C)cc2C)c(OC)c1`, the activity change (PNC), negative = inhibition was active: -81.9%. With `Cc1cc(C(=O)COC(=O)CC2Sc3ccccc3NC2=O)c(C)n1-c1ccc(Br)cc1` (centres undefined) the activity change (PNC), negative = inhibition was inconclusive: -34.1%. In the case of `CCOC(=O)N1CCC(Nc2c(NCCN3CCN(Cc4ccccc4)CC3)c(=O)c2=O)CC1`, the activity change (PNC), negative = inhibition was inconclusive: -70.7%. With `COc1ccc(N2CCN(c3ncccc3C#N)CC2)cc1` the activity change (PNC), negative = inhibition was inconclusive: -36.6%. In the case of `O=C(Nc1ccc2c(c1)OCO2)c1cnn2cccnc12`, the activity change (PNC), negative = inhibition was inconclusive: -57.2%. In the case of `CC(C)c1ccc(OCC(=O)N(c2ccccn2)C2CCCCC2)cc1`, the activity change (PNC), negative = inhibition was inconclusive: -76.6%. For `CCCc1nc2oc(C(=O)OCC)c(N)c2c2c1COC(C)(C)C2`, the activity change (PNC), negative = inhibition was inconclusive: -42.1%. For `O=C(NC1CCCCCC1)C1c2ccccc2C(=O)N1C1CC1` (centres undefined), the activity change (PNC), negative = inhibition was inactive: -3.23%. With `Cc1[nH]ccc(=O)c1OC1OC(CO)C(O)C(O)C1O` (centres undefined) the activity change (PNC), negative = inhibition was inconclusive: -44.8%. For `COc1ccc2c(c1)-c1c(sn(-c3ccccc3)c1=S)C(C)(C)N2`, the activity change (PNC), negative = inhibition was inconclusive: -78.6%. With `O=C(COc1ccc2ccccc2c1)Nc1ccc(S(=O)(=O)N2CCCCCC2)cc1` the activity change (PNC), negative = inhibition was inactive: -24.8%. With `Cc1cc(=O)n2nc(N3CCC(C(=O)NCCc4ccccc4)CC3)sc2n1` the activity change (PNC), negative = inhibition was inconclusive: -51.9%. For `O=C(O)CCC(=O)Nc1ccc(C(=O)OC2CCCCC2)cc1`, the activity change (PNC), negative = inhibition was inactive: 33.3%. For `COc1ccc(C2CC(c3ccc(OC)cc3)n3nc(N)nc3N2)cc1` (centres undefined), the activity change (PNC), negative = inhibition was inconclusive: -72.6%. In the case of `CCOC(=O)c1c(NC(=O)CSc2nc3nc(C)cc(C)n3n2)sc(CC)c1C`, the activity change (PNC), negative = inhibition was inconclusive: -40.3%. For `Cc1ccc(OCCN2CCN(c3nc(NCc4ccco4)c4ccccc4n3)CC2)cc1`, the activity change (PNC), negative = inhibition was inconclusive: -40.6%. With `CCOC(=O)c1oc2ccccc2c1CN1CCN(C(=O)c2ccccc2)CC1` the activity change (PNC), negative = inhibition was active: -109%. With `CCOc1cc(CNc2ccc(N3CCOCC3)cc2)cc(Br)c1OCC` the activity change (PNC), negative = inhibition was active: -113%. In the case of `Cc1ccc(NCCNc2ccc(C)cc2)cc1`, the activity change (PNC), negative = inhibition was inactive: 18.8%. In the case of `Cc1csc(=N)n1-c1ccc(Cl)cc1`, the activity change (PNC), negative = inhibition was inactive: -3.92%. In the case of `C1CCN(c2nc3nonc3nc2N2CCCCC2)CC1`, the activity change (PNC), negative = inhibition was inconclusive: -41.1%. With `CCOc1ncccc1C(=O)Nc1ccc(Cl)cc1` the activity change (PNC), negative = inhibition was inconclusive: -55%. In the case of `CCOc1ccc(N(CC(=O)NC2CCCCCC2)S(=O)(=O)c2c(C)[nH]c(=O)[nH]c2=O)cc1`, the activity change (PNC), negative = inhibition was inconclusive: -45.1%. With `COc1ccc(C2=CC(c3c(C)nn(-c4ccccc4)c3Cl)n3nnnc3N2)cc1OC` (centres undefined) the activity change (PNC), negative = inhibition was inconclusive: -43.2%. For `CCc1nnc(NC(=O)C2CC(=O)N(c3ccc4c(c3)OCCO4)C2)s1` (centres undefined), the activity change (PNC), negative = inhibition was active: -107%.
